For some assays here: For at least one compound, name, drawing or mass did not settle the structure. Some results were stated once for a whole list of compounds, not compound by compound. Some compounds share one range, which may span the group rather than tell each member.
Key:
ARH-77 cells = test: Survival of SCID mice with xenografts of ARH-77 cells; conditions: 4.1×10^6 ARH-77 cells i.p.; oral 250 mg/kg once daily on Day 1 and Day 2; control about 30%
ARH-77 = test: Cytotoxicity (cells in subG1 phase), S00109 alone and with dexamethasone; type: cell-based, human; conditions: dexamethasone alone at 2, 20 and 200 ng/ml, without S00109, 24 hour

With CC1=C(COCCC(C)C)C(=O)N(Nc2ccc(C(F)(F)F)c(Cl)n2)C1=O [Compound S03405, 1-{[6-chloro-5-(trifluoromethyl)(2-pyridyl)]amino}-4-methyl-3-[(3-methylbutoxy)methyl]azoline-2,5-dione] the “survival rate by 50 days after transplantation” value (ARH-77 cells) was 80-100%.

With C[C@@H]1C[C@H]2[C@@H]3CCC4=CC(=O)C=C[C@]4(C)[C@@]3(F)[C@@H](O)C[C@]2(C)[C@@]1(O)C(=O)CO [dexamethasone, reference compound] the “percentage of cells in subG1 phase (cell death)” value (ARH-77) was “slightly increased levels of subG1 cells”.
